PMC10850505, “Molecular mechanism of specific HLA-A mRNA recognition by the RNA-binding-protein hMEX3B to promote tumor immune escape”
No constants are given. Whether binding was seen depends on the method and setting.

How the values were obtained:
[1] = biological target: hMEX3B tandem KH1/2 domains (residues 56-230) (human) (UniProt Q6ZN04); test: SEC-MALS; Superdex 75 Increase 10/300 GL; 20 mM Bis-Tris pH 6.5, 150 mM NaCl, 2 mM DTT; room temperature; hMEX3B 2 mg/ml, apo and mixed with 12-nt RNA at 1:1.2; both purified
[2] = biological target: hMEX3B tandem KH1/2 domains (residues 56-230) (human) (UniProt Q6ZN04); test: SAXS; KH1/2 apo form and 12-nt RNA-bound form in solution; sample concentrations 1 to 5 mg/ml; beamline BL19U2, SSRF; both purified

binding [1]: no binding (tested: 2 mg/ml)
binding [2]: no binding (tested: 1 to 5 mg/ml)
B1: hMEX3B tandem KH1/2 domains (residues 56-230) (domain or fragment, UniProt Q6ZN04 56-230)
chain: DSEPRKKSVNMTECVPVPSSEHVAEIVGRQGCKIKALRAKTNTYIKTPVRGEEPVFVVTGRKEDVAMARREIISAAEHFSMIRASRNKNTALNGAVPGPPNLPGQTTIQVRVPYRVVGLVVGPKGATIKRIQQQTHTYIVTPSRDKEPVFEVTGMPENVDRAREEIEAHIALRTG
